Source: paper PMC9522936, “Regain flood adaptation in rice through a 14-3-3 protein OsGF14h” (Nature Communications, 2022)
Results are given in words; binding and its absence hold for the method and conditions named. For some assays here: In cells and extracts the contact can be indirect. Some results given as binding are weak or reduced against the parent protein; the word gives no strength. For some assays here: Tags and fused reporters may be left off the sequences shown.

T1: GST-OsVP1 (rice) (UniProt P37398)
T1 sequence: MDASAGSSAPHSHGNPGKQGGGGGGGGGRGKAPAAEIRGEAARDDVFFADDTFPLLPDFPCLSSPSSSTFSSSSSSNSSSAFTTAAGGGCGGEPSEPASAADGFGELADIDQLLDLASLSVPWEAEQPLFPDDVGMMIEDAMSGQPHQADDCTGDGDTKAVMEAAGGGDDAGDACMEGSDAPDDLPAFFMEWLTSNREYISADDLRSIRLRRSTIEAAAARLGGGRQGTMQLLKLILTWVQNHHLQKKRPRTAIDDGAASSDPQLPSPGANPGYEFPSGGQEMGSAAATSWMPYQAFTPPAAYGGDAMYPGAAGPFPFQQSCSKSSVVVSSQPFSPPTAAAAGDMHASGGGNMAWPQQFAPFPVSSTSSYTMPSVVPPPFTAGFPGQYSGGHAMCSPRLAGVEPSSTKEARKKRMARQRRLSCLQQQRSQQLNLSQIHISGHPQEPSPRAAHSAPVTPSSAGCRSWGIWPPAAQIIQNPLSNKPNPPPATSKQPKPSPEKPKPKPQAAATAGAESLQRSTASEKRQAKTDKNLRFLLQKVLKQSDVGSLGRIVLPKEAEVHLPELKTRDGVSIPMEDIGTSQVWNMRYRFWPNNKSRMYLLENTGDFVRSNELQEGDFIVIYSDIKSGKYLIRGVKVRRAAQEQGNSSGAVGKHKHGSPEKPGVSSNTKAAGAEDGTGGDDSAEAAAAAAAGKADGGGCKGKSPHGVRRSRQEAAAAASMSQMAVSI

T2: OsGF14h^SN9816-GFP (pBWA(V)HS-OsGF14h-GFP) (rice (Oryza sativa), japonica variety Shennong9816) (UniProt Q2R1D5)
T2 sequence: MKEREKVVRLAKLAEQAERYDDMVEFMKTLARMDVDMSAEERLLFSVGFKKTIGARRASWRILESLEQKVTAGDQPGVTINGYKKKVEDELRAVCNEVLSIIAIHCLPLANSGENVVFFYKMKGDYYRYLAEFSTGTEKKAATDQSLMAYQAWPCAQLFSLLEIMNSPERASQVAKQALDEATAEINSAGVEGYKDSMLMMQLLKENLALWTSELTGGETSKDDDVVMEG

T3: OsGF14h^SN9816 (pGBKT7-OsGF14h, two-hybrid bait) (rice (Oryza sativa), japonica variety Shennong9816) (UniProt Q2R1D5)
T3 sequence: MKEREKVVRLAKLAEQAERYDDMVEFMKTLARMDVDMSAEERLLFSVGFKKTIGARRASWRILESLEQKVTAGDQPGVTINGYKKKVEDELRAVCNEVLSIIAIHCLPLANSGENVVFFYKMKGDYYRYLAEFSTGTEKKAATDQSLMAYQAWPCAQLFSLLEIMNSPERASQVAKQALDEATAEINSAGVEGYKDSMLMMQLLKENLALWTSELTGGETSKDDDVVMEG


Assays:
GST-OsVP1 (rice) = target: T1, GST-OsVP1 (rice); assay: pull-down; GST-OsHOX3 or GST-OsVP1 as bait on GST beads, equal quantities of recombinant proteins in GST pull-down buffer at 4 °C overnight, His-OsGF14h detected by anti-His; both purified
[1] = target: T2, OsGF14h^SN9816-GFP (pBWA(V)HS-OsGF14h-GFP) (rice (Oryza sativa), japonica variety Shennong9816); assay: co-IP; OsGF14h-GFP and 3×FLAG-HOX3 or 3×FLAG-VP1 co-expressed in N. benthamiana leaves; GFP-Trap agarose 2 h; washes in 10 mM Tris-HCl pH 8.0, 150 mM NaCl, 0.5 mM EDTA, 2 mM DTT, 0.1% NP-40; anti-FLAG blot
[2] = target: T3, OsGF14h^SN9816 (pGBKT7-OsGF14h, two-hybrid bait) (rice (Oryza sativa), japonica variety Shennong9816); assay: two-hybrid; pairwise, pGBKT7-OsGF14h with pGADT7-OsHOX3 or pGADT7-VP1 in strain Y2H Gold; growth on SD/-Leu-Trp-His-Ade

Binder | binding [1] | binding [2] | also measured
His-OsGF14h^SN9816 (protein, UniProt Q2R1D5 1-230) MKEREKVVRLAKLAEQAERYDDMVEFMKTLARMDVDMSAEERLLFSVGFKKTIGARRASWRILESLEQKVTAGDQPGVTINGYKKKVEDELRAVCNEVLSIIAIHCLPLANSGENVVFFYKMKGDYYRYLAEFSTGTEKKAATDQSLMAYQAWPCAQLFSLLEIMNSPERASQVAKQALDEATAEINSAGVEGYKDSMLMMQLLKENLALWTSELTGGETSKDDDVVMEG |  |  | binding (GST-OsVP1 (rice)): binds
3×FLAG-HOX3 (pBWA(V)HS-3×FLAG-HOX3) (protein, UniProt Q0JKX1 1-229) MMGATSPSGLELTMAVPGLSSSGSEGAGCNNNNAGGGCNMRDLDINQPASGGEEEEFPMGSVEEDEEERGVGGPHRPKKLRLSKEQSRLLEESFRLNHTLTPKQKEALAIKLKLRPRQVEVWFQNRRARTKLKQTEMECEYLKRCFGSLTEENRRLQREVEELRAMRVAPPTVLSPHTRQPLPASALTMCPRCERITAATGPPAVRPPPSSAAAAAPSPFHPRRPSAAF | binds |  | 
3×FLAG-VP1 (pBWA(V)HS-3×FLAG-VP1) (protein, UniProt P37398 1-727) MDASAGSSAPHSHGNPGKQGGGGGGGGGRGKAPAAEIRGEAARDDVFFADDTFPLLPDFPCLSSPSSSTFSSSSSSNSSSAFTTAAGGGCGGEPSEPASAADGFGELADIDQLLDLASLSVPWEAEQPLFPDDVGMMIEDAMSGQPHQADDCTGDGDTKAVMEAAGGGDDAGDACMEGSDAPDDLPAFFMEWLTSNREYISADDLRSIRLRRSTIEAAAARLGGGRQGTMQLLKLILTWVQNHHLQKKRPRTAIDDGAASSDPQLPSPGANPGYEFPSGGQEMGSAAATSWMPYQAFTPPAAYGGDAMYPGAAGPFPFQQSCSKSSVVVSSQPFSPPTAAAAGDMHASGGGNMAWPQQFAPFPVSSTSSYTMPSVVPPPFTAGFPGQYSGGHAMCSPRLAGVEPSSTKEARKKRMARQRRLSCLQQQRSQQLNLSQIHISGHPQEPSPRAAHSAPVTPSSAGCRSWGIWPPAAQIIQNPLSNKPNPPPATSKQPKPSPEKPKPKPQAAATAGAESLQRSTASEKRQAKTDKNLRFLLQKVLKQSDVGSLGRIVLPKEAEVHLPELKTRDGVSIPMEDIGTSQVWNMRYRFWPNNKSRMYLLENTGDFVRSNELQEGDFIVIYSDIKSGKYLIRGVKVRRAAQEQGNSSGAVGKHKHGSPEKPGVSSNTKAAGAEDGTGGDDSAEAAAAAAAGKADGGGCKGKSPHGVRRSRQEAAAAASMSQMAVSI | binds |  | 
OsHOX3 (pGADT7-OsHOX3, two-hybrid prey) (protein, UniProt Q0JKX1 1-229) MMGATSPSGLELTMAVPGLSSSGSEGAGCNNNNAGGGCNMRDLDINQPASGGEEEEFPMGSVEEDEEERGVGGPHRPKKLRLSKEQSRLLEESFRLNHTLTPKQKEALAIKLKLRPRQVEVWFQNRRARTKLKQTEMECEYLKRCFGSLTEENRRLQREVEELRAMRVAPPTVLSPHTRQPLPASALTMCPRCERITAATGPPAVRPPPSSAAAAAPSPFHPRRPSAAF |  | binds | 
OsVP1 (pGADT7-VP1, two-hybrid prey) (protein, UniProt P37398 1-727) MDASAGSSAPHSHGNPGKQGGGGGGGGGRGKAPAAEIRGEAARDDVFFADDTFPLLPDFPCLSSPSSSTFSSSSSSNSSSAFTTAAGGGCGGEPSEPASAADGFGELADIDQLLDLASLSVPWEAEQPLFPDDVGMMIEDAMSGQPHQADDCTGDGDTKAVMEAAGGGDDAGDACMEGSDAPDDLPAFFMEWLTSNREYISADDLRSIRLRRSTIEAAAARLGGGRQGTMQLLKLILTWVQNHHLQKKRPRTAIDDGAASSDPQLPSPGANPGYEFPSGGQEMGSAAATSWMPYQAFTPPAAYGGDAMYPGAAGPFPFQQSCSKSSVVVSSQPFSPPTAAAAGDMHASGGGNMAWPQQFAPFPVSSTSSYTMPSVVPPPFTAGFPGQYSGGHAMCSPRLAGVEPSSTKEARKKRMARQRRLSCLQQQRSQQLNLSQIHISGHPQEPSPRAAHSAPVTPSSAGCRSWGIWPPAAQIIQNPLSNKPNPPPATSKQPKPSPEKPKPKPQAAATAGAESLQRSTASEKRQAKTDKNLRFLLQKVLKQSDVGSLGRIVLPKEAEVHLPELKTRDGVSIPMEDIGTSQVWNMRYRFWPNNKSRMYLLENTGDFVRSNELQEGDFIVIYSDIKSGKYLIRGVKVRRAAQEQGNSSGAVGKHKHGSPEKPGVSSNTKAAGAEDGTGGDDSAEAAAAAAAGKADGGGCKGKSPHGVRRSRQEAAAAASMSQMAVSI |  | binds | 
